Earlier results in patent US5994334A, “Androgen synthesis inhibitors” (priority 1997, dated 1999).
“Also recorded” adds a separate entry of the source. At least one compound was matched to its structure with a doubt left.

Assays:
[1] = test system: 5α-reductase; settings: cited from earlier work
[2] = test system: aromatase; settings: in vitro; cited from earlier work
[3] = test system: patients with prostatic cancer; settings: cited from earlier work
[4] = test system: breast cancers in postmenopausal patients; settings: cited from earlier work
[5] = men with advanced prostatic cancer

## C[C@]12CCC(=O)C(O)=C1CC[C@@H]1[C@@H]2CC[C@]2(C)C(=O)CC[C@@H]12 [Compound 4-OHA, 4-hydroxyandrostene-3,17-dione]
[1]
  inhibition of 5α-reductase, literature (in words): inhibits 5α-reductase in vitro, although with less potency than it inhibits aromatase
[2]
  inhibition of aromatase, literature (in words): rapid competitive inhibition followed by inactivation of the enzyme in vitro
[3]; human, in vivo
  weak androgenic activity (in words): weak androgenic activity
[3]; [5]
  objective remissions, estrogen and DHT levels (in words): no clear evidence of objective remissions; also recorded: Estrogen levels were reduced; also recorded: DHT concentrations were unchanged
  subjective responses: 80 % of patients
[4]; postmenopausal patients with advanced metastatic disease
  regression of breast cancers (in words): significant regression of breast cancers
[4]; postmenopausal patients
  peripheral plasma estrogen levels (in words): reduces peripheral plasma estrogen levels
